Reference: patent US20130266605A1, “PEPTIDE INHIBITORS OF CD40L SIGNALING AND USES THEREFOR” (PHYLOGICA LIMITED, priority 2010, published 2013)
No constants are given. Whether binding was seen depends on the method and setting. Some binding calls cover weakened binding; strength is not graded here.

T1: CD40 ligand (UniProt P29965 108-261, limits assumed)
T1 sequence (looked up): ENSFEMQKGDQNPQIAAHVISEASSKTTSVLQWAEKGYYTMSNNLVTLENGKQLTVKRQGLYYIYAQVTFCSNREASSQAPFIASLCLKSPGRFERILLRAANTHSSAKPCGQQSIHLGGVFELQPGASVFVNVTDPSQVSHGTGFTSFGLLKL

B1: M07_40L_0104_0882 (peptide)
peptide: LLGVIVDGKEQTIIDDGNNEFGRKVSGDLDGTARFRWYLGNQTAADDYLLESYGEHPQFPWTTQHILK
B2: C02_40L_0304_1027 (peptide)
peptide: LLGTPQNNAQAEVNLNINIGGPRYVGNYGPDFIYLDDYGFAVSWGWDYDVIRL
B3: C02_40L_0504_1056 (peptide)
peptide: LWTLQVTGPDGVETYTTNFLWMCQGYYRHSVGYTPEWPGMADFGGSIVHPQTWPADLDLK
B4: C02_40L_0804_1174 (peptide)
peptide: LWTLQVTGPDGVETYTTNFLWTCQGYYRHSVGYTPEWPGMADFGGSIVHPQTWPADLDLK
B5: C02_40L_0803_1136 (peptide)
peptide: LWTLQVTGPDGVETYTTNFLWMCQGYYRHSVGYTPEWPGMADFGGSIVHPQTWPADLDLK
B6: C02_40L_0803_1124 (peptide)
peptide: LWTLQVTGPDGVETYTTNFLWMCQGYYRHSVGYTPEWPGMADFGGSIVHPQTWPADLDLK
B7: C02_40L_0803_1144 (peptide)
peptide: LWTLQVTGPDGVETYTTNFLWMCQGYYRHSVGYTPEWPGMADFGGSIVHPQTWPADLDLK
B8: C02_40L_0605_1091 (peptide)
peptide: LWTLQVTGPDGVETYTTNFLWMCQGYYRHSVGYTPEWPGMADFGGSIVHPQTWPADLDLK
B9: C02_40L_0803_1138 (peptide)
peptide: LWTLQVTGPDGVETYTTNFLWMCQGYYRHSVGYTPEWPGMADFGGSIVHPQTWPADLDRK
B10: C02_40L_0804_1160 (peptide)
peptide: LWTLQVTGPDGVETYTTNFLWMCQGYYRHSVGYTPEWPGMADFGGSIVHPQTWPADLDLK
B11: C02_40L_0704_1098 (peptide)
peptide: LWTLQVTGPDGVETYTTNFLWMCQGYYRHSVGYTPEWPGMADFGGSIVHPQTWPADLDLK
B12: C02_40L_0803_0889 (peptide)
peptide: LPKYGTDEKQDALRRYYAAYFNVEGGDSGTFTDYKWDCLWSCDNRGGRIVCLRENRYTSEYTGWCN
B13: C02_40L_0803_1116 (peptide)
peptide: LIHEAIGDQLTCVFVDTGLLRKNEADQVVTLFRDHYNIPLVHVDAGDLFLGELAGVSDPETN
B14: C02_40L_0103_0972 (peptide)
peptide: LYDYPDRSGPWWDAVFYEGNSLQYPSFVPQDVAGLMANTGGPDGFVKWLDHLFDGHYSQSNEPDLLAPYLYIQRNSC
B15: C02_40L_0205_0996 (peptide)
peptide: LLGTPQNNAQAEVNLNINIGGPRYVGNYGPDFIYLDDYGFAVSWGWDYDVIRLGNFYFIYRDGYWFCN
B16: C03_40L_0105_0969 (peptide)
peptide: ELLLGVIVDGKEQTIIDDGNNEFGRKVSGDLDGTARFRWYLGNQTAADDYLLESYGEHPQFPWTTQHILKGN
B17: C02_40L_0803_1145 (peptide)
peptide: RGIEVGDPSSGNETGPTGKPFTTTIPSEVGATEISGSGKEIQPAQLMNDLPNSESAEQVRERTRDLVQWFNYALPDFVFVEEDSGYWGDTQDFSMPTGDDYELNTCIFSWYWCGLWSCDNRGGRIVCLRENRYTSEYTGWCN

These binders were tested against T1, CD40 ligand (assay: phage display screen on CD40L).

binding, binds:
B1, B2, B3, B4, B5, B6, B7, B8, B9, B10, B11, B12, B13, FWVSDIGWMMGPWTLIGNHTFAGTIFMYEGAPDYPNPDRFWEMIERH [C02_40L_0803_1137], FWVSDIGWMMGPWTLIGNHTFAGTIFMYEGAPDYPNPDRFWEMIERH [C02_40L_0505_1075], RWYLGNQTAADDYLLESYGEHPQFPWTTQHILK [C03_40L_0104_0943], RWYLGNQTAADDYLLESYGEHPQFPWTTQHILK [C03_40L_0104_0945], RWYLGNQTAADDYLLESYDEHPQFPWTTQHILK [C03_40L_0105_0964], RWYLGNQTAADDYLLESYGEHPQFPWTTQHIRK [C03_40L_0104_0948], RWYLGNQTAADDYLLESYGEHPQFPWTTQHILK [C03_40L_0104_0953], RWYLGNQTAADDYLLESYGEHPQFPWTTQHILK [C03_40L_0104_0944], RWYLGNQTAADDYLLESYGEHPQFPWTTQHILK [C03_40L_0104_0951], RWYLGNQTAADDYLLESYGEHPQFPWTTQHILK [C03_40L_0105_0959], RWYLGNQTAADDYLLESYGEHPQFPWTTQHIHK [C03_40L_0105_0957], RWYLGNQTAADDYLLESYGEHPQFPWTTQHIHK [C03_40L_0105_0967], RWYLGNQTAADDYLLESYGEHPQFPWTTQHILK [C03_40L_0105_0965], RWYLGNQTAADDYLLESYGEHPQFPWTTQHILK [C03_40L_0105_0958], RWYLGNQTAADDYLLESYGEHPQFPWTTQHILK [C03_40L_0105_0966], RWYLGNQTAADDYLLESYGEHPQFPWTTQHILK [C03_40L_0105_0960], RWYLGNQTAADDYLLESYGEHPQFPWTTQHILK [C03_40L_0105_0970], B14, B15, B16, B17, RWYLGNQTAADDYLLESYGEHPQFPWTTQHILKG [C03_40L_0105_0962]
